## Results from one PubChem assay

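A panel of P. falciparum strains inside erythrocytes is exposed to compounds for three days, then a DNA-binding dye reports the amount of parasite DNA.
Each compound was titrated across a series from about 0.000037 to 29 µM.
The number is the fitted AC50, the concentration giving a half-maximal change in signal; a lower value means higher potency, whether the curve shows a decrease or an increase.
Calls follow the curve class and fit quality: every row here is inconclusive, covering signal-raising curves and weak, poorly fitted, partial or highest-dose-only inhibition curves.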

Values are in µM.
All entries here are filed as inconclusive.
These entries are mostly ones the record files as inconclusive; other results of the assay are not listed here.
Potencies fitted to partial, single-point or poorly fitting curves are rough.

| # | compound | tested on / at | potency (µM) | curve |
|---|---|---|---|---|
| 1 | `CN(C)[C@@H]1C(=O)C(C(N)=O)=C(O)[C@@]2(O)C(=O)C3=C(O)c4c(O)cccc4[C@@](C)(O)[C@H]3[C@H](O)[C@@H]12` | ATS95 | 17.78 | inhibitor, single point |
| 2 | `CNC[C@@H](O)[C@@H](O)[C@H](O)[C@H](O)CO` | CP325 | 0.0005 | inhibitor |
| 3 | `CNC[C@@H](O)[C@@H](O)[C@H](O)[C@H](O)CO` | CP266 | 0.2393 | inhibitor, full curve, poor fit |
| 4 | `Clc1ccccc1-c1nc(-c2ccncc2)no1` | W2 | 19.01 | inhibitor, single point |
| 5 | `Clc1ccccc1-c1nc(-c2ccncc2)no1` | N140 | 11.22 | inhibitor, single point |
| 6 | `Clc1ccccc1-c1nc(-c2ccncc2)no1` | P93_24 | 17.78 | inhibitor, single point |
| 7 | `Clc1ccccc1-c1nc(-c2ccncc2)no1` | DIV14 | 19.01 | inhibitor, single point |
| 8 | `Clc1ccccc1-c1nc(-c2ccncc2)no1` | PC15 | 10 | inhibitor, single point |
| 9 | `Clc1ccccc1-c1nc(-c2ccncc2)no1` | TAB165 | 17.78 | inhibitor, single point |
| 10 | `Clc1ccccc1-c1nc(-c2ccncc2)no1` | AS120 | 17.78 | inhibitor, single point |
| 11 | `Clc1ccccc1-c1nc(-c2ccncc2)no1` | PAD | 17.78 | inhibitor, single point |
| 12 | `Clc1ccccc1-c1nc(-c2ccncc2)no1` | ICS | 14.13 | inhibitor, single point |
| 13 | `Clc1ccccc1-c1nc(-c2ccncc2)no1` | ECU | 10 | inhibitor, single point |
| 14 | `Clc1ccccc1-c1nc(-c2ccncc2)no1` | TAB109 | 3.981 | inhibitor, single point |
| 15 | `OC(CCN1CCCCC1)(c1ccccc1)c1ccccc1` | CP191 | 17.78 | inhibitor, single point |
| 16 | `OC(CCN1CCCCC1)(c1ccccc1)c1ccccc1` | CP252 | 11.22 | inhibitor, single point |
| 17 | `OC(CCN1CCCCC1)(c1ccccc1)c1ccccc1` | CP185 | 8.912 | inhibitor, partial curve |
| 18 | `OC(CCN1CCCCC1)(c1ccccc1)c1ccccc1` | PAD | 10 | inhibitor, single point |
| 19 | `OC(CCN1CCCCC1)(c1ccccc1)c1ccccc1` | CP305 | 8.492 | inhibitor, single point |
| 20 | `OC(CCN1CCCCC1)(c1ccccc1)c1ccccc1` | CP325 | 7.569 | inhibitor, partial curve |
| 21 | `OC(CCN1CCCCC1)(c1ccccc1)c1ccccc1` | CP291 | 6.746 | inhibitor, partial curve |
| 22 | `OC(CCN1CCCCC1)(c1ccccc1)c1ccccc1` | DIV30 | 6.746 | inhibitor, partial curve |
| 23 | `OC(CCN1CCCCC1)(c1ccccc1)c1ccccc1` | CP247 | 8.912 | inhibitor, single point |
| 24 | `OC(CCN1CCCCC1)(c1ccccc1)c1ccccc1` | PC26 | 9.528 | inhibitor, partial curve |
| 25 | `OC(CCN1CCCCC1)(c1ccccc1)c1ccccc1` | CP256 | 10 | inhibitor, single point |
| 26 | `OC(CCN1CCCCC1)(c1ccccc1)c1ccccc1` | CP194 | 12 | inhibitor, partial curve |
| 27 | `OC(CCN1CCCCC1)(c1ccccc1)c1ccccc1` | CP329 | 2.686 | inhibitor, partial curve |
| 28 | `OC(CCN1CCCCC1)(c1ccccc1)c1ccccc1` | TAB109 | 8.912 | inhibitor, partial curve |
| 29 | `OC(CCN1CCCCC1)(c1ccccc1)c1ccccc1` | CP269 | 15.1 | inhibitor, single point |
| 30 | `OC(CCN1CCCCC1)(c1ccccc1)c1ccccc1` | N140 | 10 | inhibitor, single point |
| 31 | `OC(CCN1CCCCC1)(c1ccccc1)c1ccccc1` | CP262 | 12 | inhibitor, partial curve, poor fit |
| 32 | `OC(CCN1CCCCC1)(c1ccccc1)c1ccccc1` | PC49 | 11.22 | inhibitor, single point |
| 33 | `OC(CCN1CCCCC1)(c1ccccc1)c1ccccc1` | CP268 | 6.746 | inhibitor, partial curve |
| 34 | `OC(CCN1CCCCC1)(c1ccccc1)c1ccccc1` | CP217 | 10 | inhibitor, single point |
| 35 | `OC(CCN1CCCCC1)(c1ccccc1)c1ccccc1` | DFO2036 | 10 | inhibitor, single point |
| 36 | `OC(CCN1CCCCC1)(c1ccccc1)c1ccccc1` | CP238 | 10 | inhibitor, single point |
| 37 | `OC(CCN1CCCCC1)(c1ccccc1)c1ccccc1` | ATS189 | 7.943 | inhibitor, partial curve |
| 38 | `OC(CCN1CCCCC1)(c1ccccc1)c1ccccc1` | CP315 | 21.33 | inhibitor, partial curve, poor fit |
| 39 | `OC(CCN1CCCCC1)(c1ccccc1)c1ccccc1` | SC27B | 11.22 | inhibitor, partial curve |
| 40 | `OC(CCN1CCCCC1)(c1ccccc1)c1ccccc1` | PC15 | 10 | inhibitor, partial curve |
| 41 | `OC(CCN1CCCCC1)(c1ccccc1)c1ccccc1` | CP215 | 19.01 | inhibitor, single point |
| 42 | `OC(CCN1CCCCC1)(c1ccccc1)c1ccccc1` | CP192 | 19.01 | inhibitor, single point |
| 43 | `OC(CCN1CCCCC1)(c1ccccc1)c1ccccc1` | P93_24 | 11.22 | inhibitor, partial curve |
| 44 | `OC(CCN1CCCCC1)(c1ccccc1)c1ccccc1` | CP260 | 11.22 | inhibitor, single point |
| 45 | `OC(CCN1CCCCC1)(c1ccccc1)c1ccccc1` | JCK | 11.22 | inhibitor, single point |
| 46 | `OC(CCN1CCCCC1)(c1ccccc1)c1ccccc1` | C2A | 8.912 | inhibitor, single point |
| 47 | `OC(CCN1CCCCC1)(c1ccccc1)c1ccccc1` | CP335 | 16.94 | inhibitor, single point |
| 48 | `NC(N)=NC(=O)Cc1c(Cl)cccc1Cl` | TAB109 | 10 | inhibitor, single point |
| 49 | `NC(N)=NC(=O)Cc1c(Cl)cccc1Cl` | CP215 | 8.492 | inhibitor, partial curve |
| 50 | `NC(N)=NC(=O)Cc1c(Cl)cccc1Cl` | ATS95 | 8.912 | inhibitor, single point |
| 51 | `NC(N)=NC(=O)Cc1c(Cl)cccc1Cl` | CP252 | 11.22 | inhibitor, single point |
| 52 | `NC(N)=NC(=O)Cc1c(Cl)cccc1Cl` | CP247 | 11.22 | inhibitor, single point |
| 53 | `NC(N)=NC(=O)Cc1c(Cl)cccc1Cl` | ATS189 | 8.912 | inhibitor, partial curve |
| 54 | `NC(N)=NC(=O)Cc1c(Cl)cccc1Cl` | FAB9 | 5.012 | inhibitor, partial curve |
| 55 | `NC(N)=NC(=O)Cc1c(Cl)cccc1Cl` | CP201 | 6.012 | inhibitor, partial curve |

The results are deposited in PubChem (AID504749; NCATS, 2011).